Experimental data taken from PMC11318162.
Results are given in words; binding and its absence hold for the method and conditions named. In cells and extracts the contact can be indirect. Some entries that bind do so weakly or less than the wild type.

Amino acid sequences for entries named in this document (tags omitted).
UniProt Q96P20: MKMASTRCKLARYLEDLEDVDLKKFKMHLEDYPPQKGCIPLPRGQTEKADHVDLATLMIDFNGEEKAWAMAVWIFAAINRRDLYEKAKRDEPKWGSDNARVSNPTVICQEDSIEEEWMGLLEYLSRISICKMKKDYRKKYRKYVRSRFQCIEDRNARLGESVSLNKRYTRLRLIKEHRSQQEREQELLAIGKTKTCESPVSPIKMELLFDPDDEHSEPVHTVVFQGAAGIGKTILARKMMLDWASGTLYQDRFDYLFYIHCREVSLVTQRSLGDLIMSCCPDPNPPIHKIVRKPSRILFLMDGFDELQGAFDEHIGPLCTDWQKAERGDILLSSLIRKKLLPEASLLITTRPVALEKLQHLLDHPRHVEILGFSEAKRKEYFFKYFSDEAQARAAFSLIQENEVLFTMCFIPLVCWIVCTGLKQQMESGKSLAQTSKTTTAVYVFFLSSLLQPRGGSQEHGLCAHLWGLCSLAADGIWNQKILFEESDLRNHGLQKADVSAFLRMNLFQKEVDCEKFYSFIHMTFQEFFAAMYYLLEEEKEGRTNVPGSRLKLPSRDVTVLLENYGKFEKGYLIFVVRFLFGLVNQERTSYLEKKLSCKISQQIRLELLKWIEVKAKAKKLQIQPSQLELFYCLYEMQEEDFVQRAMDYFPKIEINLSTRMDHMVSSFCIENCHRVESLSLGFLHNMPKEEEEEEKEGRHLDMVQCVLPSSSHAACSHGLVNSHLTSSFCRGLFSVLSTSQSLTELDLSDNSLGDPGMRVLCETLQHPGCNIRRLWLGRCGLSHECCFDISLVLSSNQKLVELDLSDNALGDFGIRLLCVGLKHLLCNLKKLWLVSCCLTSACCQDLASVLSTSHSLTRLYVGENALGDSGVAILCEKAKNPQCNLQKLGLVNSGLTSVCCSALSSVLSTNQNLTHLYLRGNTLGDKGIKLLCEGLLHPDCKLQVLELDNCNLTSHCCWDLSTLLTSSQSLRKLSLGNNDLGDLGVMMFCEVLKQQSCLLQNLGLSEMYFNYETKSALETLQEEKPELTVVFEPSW

T1: Ubiquitin-specific peptidase 1 (USP1) (human (endogenous in Nthy-ori 3-1)) (UniProt O94782)
T1 sequence: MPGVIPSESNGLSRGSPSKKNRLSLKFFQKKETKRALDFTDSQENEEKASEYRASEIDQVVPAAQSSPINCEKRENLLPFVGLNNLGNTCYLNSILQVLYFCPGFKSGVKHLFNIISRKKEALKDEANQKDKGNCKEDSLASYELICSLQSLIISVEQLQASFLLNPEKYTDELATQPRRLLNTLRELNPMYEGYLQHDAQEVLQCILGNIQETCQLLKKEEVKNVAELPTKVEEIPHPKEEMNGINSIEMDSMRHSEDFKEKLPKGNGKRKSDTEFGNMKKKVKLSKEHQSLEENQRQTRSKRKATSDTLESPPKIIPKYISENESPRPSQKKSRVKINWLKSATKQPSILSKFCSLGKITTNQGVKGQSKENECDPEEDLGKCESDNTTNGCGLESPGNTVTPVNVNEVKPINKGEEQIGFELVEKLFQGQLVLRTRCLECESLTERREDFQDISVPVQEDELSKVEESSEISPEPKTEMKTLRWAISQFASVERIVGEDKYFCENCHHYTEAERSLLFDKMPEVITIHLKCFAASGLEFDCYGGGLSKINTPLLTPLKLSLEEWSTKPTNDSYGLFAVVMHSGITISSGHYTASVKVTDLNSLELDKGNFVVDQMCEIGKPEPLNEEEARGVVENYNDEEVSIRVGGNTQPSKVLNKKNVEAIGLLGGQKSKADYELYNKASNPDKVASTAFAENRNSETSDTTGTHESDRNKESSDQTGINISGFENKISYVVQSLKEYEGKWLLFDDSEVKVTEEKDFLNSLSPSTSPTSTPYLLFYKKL


Target: T1, Ubiquitin-specific peptidase 1 (USP1) (human (endogenous in Nthy-ori 3-1))
Assay: co-IP; endogenous proteins in Nthy-ori 3-1 cells; cells lysed in RIPA lysis buffer, lysates incubated with primary antibodies overnight at 4 °C, then protein A/G agarose 2.5 h at 4 °C, eluted and immunoblotted

Molecule	binding
NLRP3 (from UniProt Q96P20 1-1036)	binds
absent in melanoma 2 (AIM2) (protein, UniProt O14862 1-343) MESKYKEILLLTGLDNITDEELDRFKFFLSDEFNIATGKLHTANRIQVATLMIQNAGAVSAVMKTIRIFQKLNYMLLAKRLQEEKEKVDKQYKSVTKPKPLSQAEMSPAASAAIRNDVAKQRAAPKVSPHVKPEQKQMVAQQESIREGFQKRCLPVMVLKAKKPFTFETQEGKQEMFHATVATEKEFFFVKVFNTLLKDKFIPKRIIIIARYYRHSGFLEVNSASRVLDAESDQKVNVPLNIIRKAGETPKINTLQTQPLGTIVNGLFVVQKVTEKKKNILFDLSDNTGKMEVLGVRNEDTMKCKEGDKVRLTFFTLSKNGEKLQLTSGVHSTIKVIKAKKKT	binds
